Common to all, as to assay: EMSA
(In general: Mobility shift assays separate free from complexed probe on a gel.)

Data set [1] deals with GATA3 + OCA-B. Conditions: no OCA-B supershift, GATA3 alone binds; EMSA: 0.6X buffer D (1X: 20 mM HEPES, 100 mM KCl, 1 mM DTT), 50 ng/ul poly-dI/dC, 1 ug/ul BSA, on ice 15 min, 6% native PAGE in 0.5X TBE; recombinant protein.
Data set [2] concerns GATA3. The following applies: EMSA: 0.6X buffer D (1X: 20 mM HEPES, 100 mM KCl, 1 mM DTT), 50 ng/ul poly-dI/dC, 1 ug/ul BSA, on ice 15 min, 6% native PAGE in 0.5X TBE; recombinant protein; protein details: FLAG (anti-FLAG purified).
In data set [3] the test system is Oct1 DNA binding domain (Oct1-DBD) + OCA-B. Conditions: no OCA-B supershift, Oct1-DBD alone binds; EMSA: 0.6X buffer D (1X: 20 mM HEPES, 100 mM KCl, 1 mM DTT), 50 ng/ul poly-dI/dC, 1 ug/ul BSA, on ice 15 min, 6% native PAGE in 0.5X TBE; recombinant protein; protein details: His (pET28a),C-terminal twinstrep and FLAG.

For at least one entry, the source does not settle the construct or the ends of the probe. For some of these results: A negative result means that nothing was seen under these conditions.

In the case of “CACCATGCAAAGGATGTGCGCGGACTCCCTTCCATTTGCTGGCCTCTTATCTGATA (double strand) [RHS6-Cy5]”, the binding result is “no binding” in data set [1] and “binds” in data set [2].

In the case of “TCGAGAAGCGCTGATTAGCATCTGTCATTA (double strand) [RHS5_12-Cy5]”, the binding result in data set [1] and in data set [3] was “no binding” each time.

Values taken from publication PMC12069319, “Transcriptional co-regulator OCA-B/Pou2af1 restricts Th2 differentiation”.
